31 substances from patent publication US20260158153A1 (priority 2021, published 2026) can be followed below.

The nature of this data set: general procedure: solution-phase peptide synthesis; HATU / diisopropylethylamine.

“(R)-4-amino-5-(3-((S)-37-(4-(2, 5-dioxo-2, 5-dihydro-1H-pyrrol-1-yl)butanamido)-31, 38, 43-trioxo-2, 5, 8, 11, 14, 17, 20, 23, 26, 29-decaoxa-32, 39, 44-triazahexatetracontan-46-amido)-4-hydroxyphenyl)pentanoic acid”: where the note is “late stage modification step”, the step yield is recorded as greater than 100%.
On the same count and under the same terms, for “(R)-4-amino-5-(4-hydroxy-3-((S)-37-(4-((E)-4-methoxy-4-oxobut-2-enamido)butanamido)-31, 38, 43-trioxo-2, 5, 8, 11, 14, 17, 20, 23, 26, 29-decaoxa-32, 39, 44-triazahexatetracontan-46-amido)phenyl)pentanoic acid” the value was 100%.
“(R,R,S,S,S,4R,4′R)-5,5′-((((105,185,195,27S)-18,19-bis(2,5-dioxo-2,5-dihydro-1H-pyrrol-1-yl)-4,9,12,17,20,25,28,33-octaoxo-10,27-bis(31-oxo-2,5,8,11,14,17,20,23,26,29-decaoxa-32-azahexatriacontan-36-yl)-3,8,11,16,21,26,29,34-octaazahexatriacontane-1,36-dioyl)bis(azanediyl))bis(4-hydroxy-3,1-phenylene))bis(4-(2-((3S,6S,9R,11R)-6-((S)-sec-butyl)-3,9-diisopropyl-2,8-dimethyl-4,7,13-trioxo-12-oxa-2,5,8-triazatetradecan-11-yl)thiazole-4-carboxamido)pentanoic acid)” came in with a conjugation yield (conjugation step) of 54%.
“(S)-(S)-(37-(4-(2, 5-dioxo-2, 5-dihydro-1H-pyrrol-1-yl)butanamido)-31, 38-dioxo-2, 5, 8, 11, 14, 17, 20, 23, 26, 29-decaoxa-32, 39-diazatritetracontan-43-oyl)glycylglycine”: the step yield reads like this: (late stage modification step, run 1) 93%; (late stage modification step, run 2) 100%.
“(S)-(S)-(S)-(37-(4-(2, 5-dioxo-2, 5-dihydro-1H-pyrrol-1-yl)butanamido)-31, 38-dioxo-2, 5, 8, 11, 14, 17, 20, 23, 26, 29-decaoxa-32, 39-diazatritetracontan-43-oyl)glycylglycylglycine” gave a step yield (late stage modification step) of 92%.
On the same count and under the same terms, the value for “(S, E)-37-((4-((2-(tert-butoxy)-2-oxoethyl)amino)-4-oxobutyl)carbamoyl)-31, 39, 44-trioxo-2, 5, 8, 11, 14, 17, 20, 23, 26, 29-decaoxa-32, 38, 43-triazaheptatetracont-45-en-47-oic acid” was 98%; that for “(S, E)-(37-(4-(4-methoxy-4-oxobut-2-enamido)butanamido)-31, 38-dioxo-2, 5, 8, 11, 14, 17, 20, 23, 26, 29-decaoxa-32, 39-diazatritetracontan-43-oyl)glycine” was 47.33%; that for “benzyl (2S, 4R)-5-(3-amino-4-(benzyloxy)phenyl)-4-(2-((6S, 9R, 11R)-6-((S)-sec-butyl)-9-isopropyl-2, 3, 3, 8-tetramethyl-4, 7, 13-trioxo-12-oxa-2, 5, 8-triazatetradecan-11-yl)thiazole-4-carboxamido)-2-methylpentanoate” was 85%.
On the same count and under the same terms, the value for “benzyl (2S, 4R)-5-(4-(benzyloxy)-3-nitrophenyl)-4-(2-((6S, 9R, 11R)-6-((S)-sec-butyl)-9-isopropyl-2, 3, 3, 8-tetramethyl-4, 7, 13-trioxo-12-oxa-2, 5, 8-triazatetradecan-11-yl)thiazole-4-carboxamido)-2-methylpentanoate” was 65%; that for “benzyl ((37S,40S,43S)-40-isopropyl-43-methyl-31,38,41,44,47,50-hexaoxo-2,5,8,11,14,17,20,23,26,29-decaoxa-32,39,42,45,48-pentaazapentacontan-37-yl)carbamate” was 68%; that for “bis(perfluorophenyl) (11S,19S,20S,28S)-19,20-bis(2,5-dioxo-2,5-dihydro-1H-pyrrol-1-yl)-4,7,10,13,18,21,26,29,32,35-decaoxo-11,28-bis(31-oxo-2,5,8,11,14,17,20,23,26,29-decaoxa-32-azahexatriacontan-36-yl)-3,6,9,12,17,22,27,30,33,36-decaazaoctatriacontanedioate” was 99%.
In turn, “di-tert-butyl (2S,5S,13S,14S,22S,25S)-13,14-bis(2,5-dioxo-2,5-dihydro-1H-pyrrol-1-yl)-2,25-dimethyl-4,7,12,15,20,23-hexaoxo-5,22-bis(31-oxo-2,5,8,11,14,17,20,23,26,29-decaoxa-32-azahexatriacontan-36-yl)-3,6,11,16,21,24-hexaazahexacosanedioate” registered a step yield (coupling step) of 88% yield.
The same measure, in the same setting: for “methyl (S, E)-37-((4-((2-((5-((R)-5-(tert-butoxy)-2-((tert-butoxycarbonyl)amino)-5-oxopentyl)-2-hydroxyphenyl)amino)-2-oxoethyl)amino)-4-oxobutyl)carbamoyl)-31, 39, 44-trioxo-2, 5, 8, 11, 14, 17, 20, 23, 26, 29-decaoxa” the value was 59%; for “tert-butyl (6S, 9S, 12S, 15S)-6-(3-methoxy-3-oxopropyl)-2, 2, 9, 12, 15-pentamethyl-4, 7, 10, 13-tetraoxo-3-oxa-5, 8, 11, 14-tetraazahexadecan-16-oate”, 100%.
“tert-butyl ((S)-37-(4-(2, 5-dioxo-2, 5-dihydro-1H-pyrrol-1-yl)butanamido)-31-oxo-2, 5, 8, 11, 14, 17, 20, 23, 26, 29-decaoxa-32-azaoctatriacontan-38-oyl)-L-alanyl-L-alanyl-L-alaninate” yielded a step yield (late stage modification step) of 94% yield.
For the substance “tert-butyl ((S)-37-(((benzyloxy)carbonyl)amino)-31-oxo-2,5,8,11,14,17,20,23,26,29-decaoxa-32-azaoctatriacontan-38-oyl)-L-alanyl-L-alanyl-L-alaninate”, the step yield (coupling step) is 81% yield.
On the same count and under the same terms, for “tert-butyl ((S)-37-(((benzyloxy)carbonyl)amino)-31-oxo-2,5,8,11,14,17,20,23,26,29-decaoxa-32-azaoctatriacontan-38-oyl)-L-alanyl-L-alanyl-L-alanyl-L-alaninate” the value was 57% yield.
Consider “tert-butyl ((S)-37-(((benzyloxy)carbonyl)amino)-31-oxo-2,5,8,11,14,17,20,23,26,29-decaoxa-32-azaoctatriacontan-38-oyl)glycylglycyl-L-alaninate”, for which the step yield (coupling step) worked out at 58% yield.
As to “tert-butyl ((S)-37-(((benzyloxy)carbonyl)amino)-31-oxo-2,5,8,11,14,17,20,23,26,29-decaoxa-32-azaoctatriacontan-38-oyl)glycylglycyl-L-alanyl-L-alaninate”, the step yield (coupling step) amounted to 100% yield.
“tert-butyl ((S)-37-amino-31-oxo-2,5,8,11,14,17,20,23,26,29-decaoxa-32-azaoctatriacontan-38-oyl)-L-alanyl-L-alanyl-L-alaninate” gave a step yield (late stage modification step) of 100% yield.
In turn, “tert-butyl ((S)-37-amino-31-oxo-2,5,8,11,14,17,20,23,26,29-decaoxa-32-azaoctatriacontan-38-oyl)-L-alanyl-L-alanyl-L-alanyl-L-alaninate” had a step yield (late stage modification step) of 100% yield.
The substance “tert-butyl ((S)-37-amino-31-oxo-2,5,8,11,14,17,20,23, 26,29-decaoxa-32-azaoctatriacontan-38-oyl)glycylglycyl-L-alanyl-L-alaninate” displayed a step yield (late stage modification step) of 74% yield.
On to “tert-butyl ((benzyloxy)carbonyl)-L-alanyl-L-alanyl-L-alanyl-L-alaninate”, for which the step yield (coupling step) was found to be 100% yield.
“tert-butyl ((benzyloxy)carbonyl)glycylglycylglycylglycinate” showed a step yield (coupling step) of 80% yield.
In the case of “tert-butyl (R)-5-(3-((37S,40S,43S)-37-(((benzyloxy)carbonyl)amino)-40-isopropyl-43-methyl-31,38,41-trioxo-2,5,8,11,14,17,20,23,26,29-decaoxa-32,39,42-triazatetratetracontan-44-amido)-4-hydroxyphenyl)-4-((tert-butoxycarbonyl)amino)pentanoate”, where the note is “coupling step”, the step yield was found to be 93% yield.
Turning to “tert-butyl (R)-5-(3-((37S,40S,43S)-37-amino-40-isopropyl-43-methyl-31,38,41-trioxo-2,5,8,11,14,17,20,23,26,29-decaoxa-32,39,42-triazatetratetracontan-44-amido)-4-hydroxyphenyl)-4-((tert-butoxycarbonyl)amino)pentanoate”, the step yield (late stage modification step) is on record as 93% yield.
The substance “tert-butyl (R)-5-(3-((37S, 40S, 43S)-37-amino-40-isopropyl-43-methyl-31, 38, 41-trioxo-2, 5, 8, 11, 14, 17, 20, 23, 26, 29-decaoxa-32, 39, 42-triazatetratetracontan-44-amido)-4-hydroxyphenyl)-4-((tert-butoxycarbonyl)amino)pentanoate” returned a step yield (late stage modification step) of 93%.
With “tert-butyl (S)-(S)-(37-(4-(2, 5-dioxo-2, 5-dihydro-1H-pyrrol-1-yl)butanamido)-31, 38-dioxo-2, 5, 8, 11, 14, 17, 20, 23, 26, 29-decaoxa-32, 39-diazatritetracontan-43-oyl)glycylglycinate”, the step yield is listed as 83% (coupling step) and 100% (late stage modification step).
The substance “tert-butyl (S)-(S)-(S)-(37-(4-(2, 5-dioxo-2, 5-dihydro-1H-pyrrol-1-yl)butanamido)-31, 38-dioxo-2, 5, 8, 11, 14, 17, 20, 23, 26, 29-decaoxa-32, 39-diazatritetracontan-43-oyl)glycylglycylglycinate” showed a step yield (late stage modification step) of 95%.
As for “tert-butyl (S)-(S)-(S)-(37-(((benzyloxy)carbonyl)amino)-31-oxo-2,5,8,11,14,17,20,23,26,29-decaoxa-32-azaoctatriacontan-38-oyl)glycylglycylglycinate”, the step yield (coupling step) is listed as 65% yield.
Where the note is “late stage modification step”, “tert-butyl (S)-(S)-(S)-(37-amino-31-oxo-2,5,8,11,14,17,20,23,26,29-decaoxa-32-azaoctatriacontan-38-oyl)glycylglycylglycinate” returned a step yield of 100% yield.
